From publication doi:10.1101/766808

Experiments:
Experiment in all cases: affinity purification with mass spectrometry
[1] = biological target: T1, NMI (human (endogenous in HeLa)) (UniProt Q13287)
T1 sequence: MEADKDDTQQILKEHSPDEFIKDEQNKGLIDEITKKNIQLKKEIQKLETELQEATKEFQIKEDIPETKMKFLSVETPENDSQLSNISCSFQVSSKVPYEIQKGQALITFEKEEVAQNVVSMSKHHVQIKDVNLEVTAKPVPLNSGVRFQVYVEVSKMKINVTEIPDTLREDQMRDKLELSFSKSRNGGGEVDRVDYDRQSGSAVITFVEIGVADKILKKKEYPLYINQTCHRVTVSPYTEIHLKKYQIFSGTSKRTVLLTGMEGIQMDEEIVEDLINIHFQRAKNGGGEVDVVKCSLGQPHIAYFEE

[2] = biological target: T2, IFI35 (human (endogenous in HeLa)) (UniProt P80217)
T2 sequence: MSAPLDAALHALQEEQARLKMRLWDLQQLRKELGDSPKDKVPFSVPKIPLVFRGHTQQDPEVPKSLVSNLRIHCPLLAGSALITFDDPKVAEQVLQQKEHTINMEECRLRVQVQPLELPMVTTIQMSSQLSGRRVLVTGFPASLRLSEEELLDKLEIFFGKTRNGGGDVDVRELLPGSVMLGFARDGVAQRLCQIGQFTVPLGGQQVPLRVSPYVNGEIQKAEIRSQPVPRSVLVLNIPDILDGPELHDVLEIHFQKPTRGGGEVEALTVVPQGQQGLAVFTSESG

[3] = biological target: T3, NMI (human (endogenous in HeLa)), Q13287; conditions: remark: other sources report otherwise
T3 chain: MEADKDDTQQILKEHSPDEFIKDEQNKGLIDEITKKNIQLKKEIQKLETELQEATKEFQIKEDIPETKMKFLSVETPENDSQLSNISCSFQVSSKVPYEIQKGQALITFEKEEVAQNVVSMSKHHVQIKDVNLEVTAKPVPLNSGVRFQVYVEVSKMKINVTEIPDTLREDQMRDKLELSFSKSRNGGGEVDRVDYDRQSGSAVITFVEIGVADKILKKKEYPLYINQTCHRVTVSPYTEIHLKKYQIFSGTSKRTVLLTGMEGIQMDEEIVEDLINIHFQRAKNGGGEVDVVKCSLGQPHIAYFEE

- binding [1]: binds
B1: IFI35 (protein, UniProt P80217 1-286)
chain: MSAPLDAALHALQEEQARLKMRLWDLQQLRKELGDSPKDKVPFSVPKIPLVFRGHTQQDPEVPKSLVSNLRIHCPLLAGSALITFDDPKVAEQVLQQKEHTINMEECRLRVQVQPLELPMVTTIQMSSQLSGRRVLVTGFPASLRLSEEELLDKLEIFFGKTRNGGGDVDVRELLPGSVMLGFARDGVAQRLCQIGQFTVPLGGQQVPLRVSPYVNGEIQKAEIRSQPVPRSVLVLNIPDILDGPELHDVLEIHFQKPTRGGGEVEALTVVPQGQQGLAVFTSESG

- binding [2]: binds
B2: NMI (protein, UniProt Q13287 1-307)
chain: MEADKDDTQQILKEHSPDEFIKDEQNKGLIDEITKKNIQLKKEIQKLETELQEATKEFQIKEDIPETKMKFLSVETPENDSQLSNISCSFQVSSKVPYEIQKGQALITFEKEEVAQNVVSMSKHHVQIKDVNLEVTAKPVPLNSGVRFQVYVEVSKMKINVTEIPDTLREDQMRDKLELSFSKSRNGGGEVDRVDYDRQSGSAVITFVEIGVADKILKKKEYPLYINQTCHRVTVSPYTEIHLKKYQIFSGTSKRTVLLTGMEGIQMDEEIVEDLINIHFQRAKNGGGEVDVVKCSLGQPHIAYFEE

- binding [3]: no binding
B3: STAT1, P42224 1-750 (protein)
chain: MSQWYELQQLDSKFLEQVHQLYDDSFPMEIRQYLAQWLEKQDWEHAANDVSFATIRFHDLLSQLDDQYSRFSLENNFLLQHNIRKSKRNLQDNFQEDPIQMSMIIYSCLKEERKILENAQRFNQAQSGNIQSTVMLDKQKELDSKVRNVKDKVMCIEHEIKSLEDLQDEYDFKCKTLQNREHETNGVAKSDQKQEQLLLKKMYLMLDNKRKEVVHKIIELLNVTELTQNALINDELVEWKRRQQSACIGGPPNACLDQLQNWFTIVAESLQQVRQQLKKLEELEQKYTYEHDPITKNKQVLWDRTFSLFQQLIQSSFVVERQPCMPTHPQRPLVLKTGVQFTVKLRLLVKLQELNYNLKVKVLFDKDVNERNTVKGFRKFNILGTHTKVMNMEESTNGSLAAEFRHLQLKEQKNAGTRTNEGPLIVTEELHSLSFETQLCQPGLVIDLETTSLPVVVISNVSQLPSGWASILWYNMLVAEPRNLSFFLTPPCARWAQLSEVLSWQFSSVTKRGLNVDQLNMLGEKLLGPNASPDGLIPWTRFCKENINDKNFPFWLWIESILELIKKHLLPLWNDGCIMGFISKERERALLKDQQPGTFLLRFSESSREGAITFTWVERSQNGGEPDFHAVEPYTKKELSAVTFPDIIRNYKVMAAENIPENPLKYLYPNIDKDHAFGKYYSRPKEAPEPMELDGPKGTGYIKTELISVSEVHPSRLQTTDNLLPMSPEEFDEVSRIVGSVEFDSMMNTV

No constants are given. Whether binding was seen depends on the method and setting. Binding seen in cells or lysates may run through a third protein. Here binding means that the protein was enriched with, or labelled near, the bait; the list need not be complete. For part of these data: A no says only that the protein was not detected with the bait. Each block holds one binder with its values, some of them ahead of it.
